# Measurements reported in patent US20040096894A1, “Crystal structures of P- selectin, P- and E-selectin complexes, and uses thereof” (priority 2000, published 2004).
# Amino acid sequences for entries named in this document (tags omitted). A change or cut given only in a name is not applied to a line headed by its entry.
# UniProt Q14242: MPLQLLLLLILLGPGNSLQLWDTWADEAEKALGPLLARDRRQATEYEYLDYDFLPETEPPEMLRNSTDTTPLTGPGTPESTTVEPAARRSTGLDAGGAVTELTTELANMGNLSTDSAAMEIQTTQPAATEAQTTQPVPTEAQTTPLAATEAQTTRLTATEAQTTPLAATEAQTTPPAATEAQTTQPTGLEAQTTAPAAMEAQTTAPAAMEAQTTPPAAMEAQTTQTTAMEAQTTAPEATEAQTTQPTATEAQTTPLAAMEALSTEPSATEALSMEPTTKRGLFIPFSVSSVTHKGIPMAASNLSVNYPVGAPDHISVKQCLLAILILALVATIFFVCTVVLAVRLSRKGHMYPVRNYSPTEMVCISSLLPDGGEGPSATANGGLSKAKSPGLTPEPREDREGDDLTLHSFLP
# B1: E-selectin lectin and EGF-like (LE) domains, monomeric (receptor, UniProt P16581 22-178, looked up)
# chain: WSYNTSTEAMTYDEASAYCQQRYTHLVAIQNKEEIEYLNSILSYSPSYYWIGIRKVNNVWVWVGTQKPLTEEAKNWAPGEPNNRQKDEDCVEIYIKREKDVGMWNDERCSKKKLALCYTAACTNTSCSGHGECVETINNYTCKCDPGFSGLKCEQIV
# modifications: glycosylated and N-glycanase-deglycosylated forms both tested
# Molecular target: sPSGL, soluble recombinant PSGL-1 consisting of the entire dimeric extracellular domain (UniProt Q14242)
# Assay: BIAcore SPR; LE domains injected over immobilized sPSGL
binder,measurement,value
B1,binding,binds

# These are yes or no findings as the source states them, for the method shown. A result given as binding can be weak or reduced; the word gives no strength.
